Results are given in words; binding and its absence hold for the method and conditions named. In cells and extracts the contact can be indirect. Some entries that bind do so weakly or less than the wild type.

Chains of the proteins cited; added tags and fusions are not shown.
UniProt O88382: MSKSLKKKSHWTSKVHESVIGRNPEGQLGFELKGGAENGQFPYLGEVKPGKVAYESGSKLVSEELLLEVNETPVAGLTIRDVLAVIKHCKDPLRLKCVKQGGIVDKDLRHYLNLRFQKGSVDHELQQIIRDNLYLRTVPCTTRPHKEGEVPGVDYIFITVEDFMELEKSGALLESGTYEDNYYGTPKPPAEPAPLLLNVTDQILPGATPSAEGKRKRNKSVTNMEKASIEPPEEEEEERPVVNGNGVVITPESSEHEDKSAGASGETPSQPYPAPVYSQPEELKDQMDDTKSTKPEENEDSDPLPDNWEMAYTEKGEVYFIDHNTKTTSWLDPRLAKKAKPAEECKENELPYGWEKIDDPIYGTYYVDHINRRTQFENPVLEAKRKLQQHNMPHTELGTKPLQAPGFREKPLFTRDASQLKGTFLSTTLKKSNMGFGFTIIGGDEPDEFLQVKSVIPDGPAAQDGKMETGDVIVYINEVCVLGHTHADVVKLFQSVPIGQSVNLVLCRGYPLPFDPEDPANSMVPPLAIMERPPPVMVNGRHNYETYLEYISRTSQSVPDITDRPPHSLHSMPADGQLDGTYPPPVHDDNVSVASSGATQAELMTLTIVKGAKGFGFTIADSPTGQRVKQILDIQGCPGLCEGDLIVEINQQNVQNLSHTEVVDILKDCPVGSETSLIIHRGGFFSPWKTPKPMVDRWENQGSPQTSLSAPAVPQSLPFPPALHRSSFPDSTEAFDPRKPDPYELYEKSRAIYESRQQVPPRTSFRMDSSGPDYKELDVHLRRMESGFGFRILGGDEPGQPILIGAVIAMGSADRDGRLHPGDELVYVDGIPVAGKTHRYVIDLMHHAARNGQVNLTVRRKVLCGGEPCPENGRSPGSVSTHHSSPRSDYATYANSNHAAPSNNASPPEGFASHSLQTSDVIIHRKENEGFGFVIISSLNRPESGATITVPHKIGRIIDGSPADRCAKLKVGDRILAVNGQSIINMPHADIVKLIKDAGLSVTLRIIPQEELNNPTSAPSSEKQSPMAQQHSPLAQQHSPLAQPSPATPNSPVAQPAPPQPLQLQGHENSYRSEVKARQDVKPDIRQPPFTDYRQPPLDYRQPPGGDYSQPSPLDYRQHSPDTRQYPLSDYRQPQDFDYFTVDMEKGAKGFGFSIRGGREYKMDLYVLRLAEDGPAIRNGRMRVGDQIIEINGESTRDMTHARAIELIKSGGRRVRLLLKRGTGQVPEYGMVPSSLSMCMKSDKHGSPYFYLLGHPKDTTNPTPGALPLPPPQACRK
UniProt Q03135: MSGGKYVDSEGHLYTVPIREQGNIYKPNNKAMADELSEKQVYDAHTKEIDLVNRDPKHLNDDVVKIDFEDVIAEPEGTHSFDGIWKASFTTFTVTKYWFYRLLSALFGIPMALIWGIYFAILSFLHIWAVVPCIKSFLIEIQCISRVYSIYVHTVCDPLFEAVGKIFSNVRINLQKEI

Our source for the binding values is article PMC5958119.

The target of test [1] is MAGI2 wild type (rat Magi2, S-SCAM, full-length cDNA) (rat) (UniProt O88382). Briefly: co-IP; co-overexpression in HEK293T cells; lysates pre-cleared with protein G or A beads, antibody overnight at 4 °C in lysis buffer with protease inhibitors, protein G or A beads (GFP-Trap agarose for GFP fusions), washed four times, immunoblot; confirmatory co-IPs for several pairs; DLC1 with CAV1 also reciprocal in cells pre- and post-treated with 100 uM dexamethasone, results not altered. For orientation: A western blot detects proteins with antibodies after separation by electrophoresis.

Test [2] addresses T1, TNS2 (tensin-2) wild type (not stated (human or mouse cDNA cloned)) (UniProt Q63HR2).
T1 sequence: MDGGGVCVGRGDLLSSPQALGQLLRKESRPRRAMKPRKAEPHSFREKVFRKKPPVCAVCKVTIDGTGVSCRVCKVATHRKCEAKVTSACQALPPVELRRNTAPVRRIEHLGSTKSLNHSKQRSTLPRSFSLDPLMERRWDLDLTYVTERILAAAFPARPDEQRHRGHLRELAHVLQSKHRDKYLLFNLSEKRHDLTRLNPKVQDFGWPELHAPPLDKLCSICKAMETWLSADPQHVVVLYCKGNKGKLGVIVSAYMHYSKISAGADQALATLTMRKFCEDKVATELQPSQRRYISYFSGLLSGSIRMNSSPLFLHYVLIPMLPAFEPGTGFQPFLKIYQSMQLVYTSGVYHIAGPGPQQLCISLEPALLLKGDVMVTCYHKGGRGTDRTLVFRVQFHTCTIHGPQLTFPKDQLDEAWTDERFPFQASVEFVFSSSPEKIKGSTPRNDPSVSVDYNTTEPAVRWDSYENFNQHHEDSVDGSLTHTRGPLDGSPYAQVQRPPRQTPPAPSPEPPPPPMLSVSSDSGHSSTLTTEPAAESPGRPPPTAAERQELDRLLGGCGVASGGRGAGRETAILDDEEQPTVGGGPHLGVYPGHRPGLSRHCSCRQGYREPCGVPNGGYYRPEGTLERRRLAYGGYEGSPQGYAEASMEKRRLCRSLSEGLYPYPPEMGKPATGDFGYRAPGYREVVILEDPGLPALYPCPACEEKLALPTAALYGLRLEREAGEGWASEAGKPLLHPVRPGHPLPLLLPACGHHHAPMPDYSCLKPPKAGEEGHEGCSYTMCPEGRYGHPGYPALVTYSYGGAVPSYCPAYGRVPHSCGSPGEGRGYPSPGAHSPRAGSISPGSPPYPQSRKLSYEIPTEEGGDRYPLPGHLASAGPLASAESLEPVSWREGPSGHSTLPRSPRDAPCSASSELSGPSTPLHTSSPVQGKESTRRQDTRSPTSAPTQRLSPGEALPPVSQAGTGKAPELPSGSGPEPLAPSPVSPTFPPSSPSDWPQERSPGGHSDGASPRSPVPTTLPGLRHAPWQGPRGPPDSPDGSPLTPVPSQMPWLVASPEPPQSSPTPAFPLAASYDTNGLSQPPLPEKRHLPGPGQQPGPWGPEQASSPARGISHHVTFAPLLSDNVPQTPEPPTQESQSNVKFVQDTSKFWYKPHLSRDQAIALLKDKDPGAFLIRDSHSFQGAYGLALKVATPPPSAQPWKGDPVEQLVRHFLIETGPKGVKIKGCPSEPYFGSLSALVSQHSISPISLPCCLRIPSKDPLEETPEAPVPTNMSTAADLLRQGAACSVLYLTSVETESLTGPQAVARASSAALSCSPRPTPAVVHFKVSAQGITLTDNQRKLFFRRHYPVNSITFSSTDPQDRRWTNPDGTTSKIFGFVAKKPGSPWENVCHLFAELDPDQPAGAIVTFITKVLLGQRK
The description is as above.

For the substance “Caveolin-1 (CAV1) (from UniProt Q03135 1-178)”, the binding result in test [1] and in test [2] was “binds” throughout.
